Test results from publication PMC9040617.

Target: 4468-D61F-MBP (Myxococcus xanthus DK1622) (UniProt Q1D3Y4)
Assay: affinity purification with mass spectrometry; purified MBP-tagged MXAN_4468 (wild type, D61V or D61F) plus MBP filler mixed with the supernatant of sonicated DK1622 cells, 4°C for 4 h; washed on the column, eluted with 10 mM maltose; eluate identified by mass spectrometry; MBP plus filler and filler alone as controls; only the target purified

B1: HrcA (MXAN_6726) (protein, UniProt Q1CXN0 1-343)
chain: MSEELGEREKEVLRAVVQEYISTGGPVGSQQLTRRPGFEVSSATMRNVLADLEELGFLEKPHTSAGRVPTDQGYRFYVDTLVKLKDPTPRDRELIHAGLAHEADLAEMLGEASRILHSLTRHAGVVVAPRPESAVFRRIEFVRLREDRVLAILVGQSGQVHNKAITVEFPITSDELLKASNYLSELLREVPLESARERIRAEMDQEQALYNALTAKALKLGAAATDLASTERMLIQGTGSFFEQPEFADVERMRALFRALDEKHKLLSLLDRVQVANEMQIFIGAESDFSAAGDVTVIASPYGNQEQVLGTVGVIGPTRMDYRRVIPLVNFTAQVLSRVLEKV
Question: With B1 as the binder, how does the binding read?
Answer: no binding

Results are given in words; binding and its absence hold for the method and conditions named. In cells and extracts the contact can be indirect. Here binding means that the protein was enriched with, or labelled near, the bait; the list need not be complete. No binding means not detected with the bait.
